Drawing on US20220088040A1, “Use of System XC-Inhibitor for Treating Statin-Induced Myalgia” (Exerkine Corporation, priority 2017, published 2022), this text covers glutamate efflux for 1 molecule.

In one experiment the test system is C2C12 myotubes. Briefly: Glutamate efflux from C2C12 myotubes (Amplex Red glutamic acid assay of culture media). In kind it is cell-based, murine. The conditions noted are these: atorvastatin alone.
For the next experiment, the system named is primary human myoblasts. To be noted: statin (atorvastatin 5 μM) alone (FIG. 3A).

For the molecule `CC(C)c1c(C(=O)Nc2ccccc2)c(-c2ccccc2)c(-c2ccc(F)cc2)n1CC[C@@H](O)C[C@@H](O)CC(=O)O` [atorvastatin], the glutamate efflux entry in the experiment on C2C12 myotubes (6 h (FIG. 2)) was “substantial increase”; in the experiment on C2C12 myotubes (12 h, 18 h and 24 h (FIG. 2)), “maintained”; with primary human myoblasts, “increased”.
